To fix the notation:
B1: Ataxin-2 (dAtx2) (protein, UniProt Q8SWR8 1-1084)
chain: MNNNSKRKTRPTGGGASGGISRYNSNDNSLRPTNNKAGAGGGNGGAAVRPSAQGVYNNTFFMHSATALVGSVVEVRLRSGNIYEGVFRTFSGNFDIALELPACIKSKNLPEEGKVPKHIIFPADTVVTIVAKDFDSQYATAGAFQTDGAISDKCNGARPDEKELEPWDSGANGDIDIELDSAANGWDPNEMFRKNENTFGVTSTFDDSLASYTVPLDKGDSLEFKEAEAKAEKLAAEIENNPTCRDRLDLENGDEEALFAAVERPSTEQDQRGDRGDRERNDRDREREERDRDRDRDRGNKPRGAGDFQLRETMSSDRYITKQTRSITGPQLSHVGMSSQGSGRDRDTRGDGSMMMQSGGGSGQGGSTQSTAALMLAGGLKGVGPAPSANASADSSSKYSGGSMVKRKTVPQGGKVMRNNVPTGGSNVSVSQGGNGNSVGQNKGGYQPSMGMPSQYSYQGNSQIMHGSSQYRNQSHMGGANKLNGDSNANTNKPLPQRQMRQYQGSQSNSSLNYGGEPQSLGKPVHGSHGGHPGQNSNSPPLQTAGPQQQQQQQQQQQQQQQQQQPPQQQQHQNIQPQGQNTQPARQVRTRDNQMQELRQFGQDFQLAPSNTSPPQQQQQQQQQQQQHQVQQQQQRALQQSASPPQQQQQQQQQQQHVVLHQVPQTHLHQAALSQPHYVPQQQPQQAPLPQQQHVPHHMQQKAQQQQLVETQHQHVQKQHQSQPQVQQPPPQLLQDPSQQPLPIYHTMPPPQTSPVVVTSPVLLEQPPPQPMPVVQQQQTQQLATPKPEVSPAPPSSNTTTPTGIASTPTAGVIASAGSEKTTPAAPTPTSNSATVPTGTAATAGGATGTTPVVKKHVLNPSAKPFTPRGPSTPNPSRPHTPQTPVPMTNIYTTTGGHVPPAANQPIYVMQPQHPFPPQTHPQAGQPPRLRRSNYPPMAASQMHVSASAATGQPLITAGPIPQFIQYGHAPHQQQFQSHTYAPMQMRVYPDQPQQLQFMTQTPQSTTPSPGQPHQQFHPPPQPSPAGGGPQPAFTPPTQAATYQLMCVHPQSLLANHYFPPPTPQHPQQNQQQYQIVMQQHQPQ
B2: Centrosomal protein of 97 kDa (CEP97) (protein, UniProt Q9VQV7 1-806)
chain: MSGDESGEEKHVLNLSKQKLKKVPKQDDAHSIRQLILDENELQKIDNIDSYLKIETLSLARNQLLRMYGVCRLHCLRELNLSFNGILSIEGLKECIHLRVLNLEGNNIKTIEHLNTNVNLECLNLADNSIGSISDMSYLRNLKELYLHGNRLTHLRQCDKCLPTSLETLTLAKNSINDLNEICTLSHLSNLLSISIADNPCVTMINSLDGFDYRPFVLNWCMSLKYIDGFVVDPIESLKAEWLYSQGRGRQFRVGEQQGLAKYLSSVCPLVGKALENENDRKLRLILSKAQHHQRQLQEEIMDNANSSASTSPSSHRKKPTSRIQSPRFSRLSGRQGSPESMVNSYHGNSSNNSIVSDNGSTNHSLQMSISLIENIKNDGEGFSLAGSGMSSSVTTKTYNSTESTPRNITPNPYNDQTFISQTPSGGPLAAASKMVPVPETLMSPDVCPAAVAQRVTVTALNPQLHKTKINKNKDNKLNLPRVRSPQLKRNQSPTSSPRRMANKCSADNMQAPEKLQQSAVLADSGGFSTDDDGEQINIEKLRAIRKMAAQKQQQMHQEQLKQQVDNNLNCQDRLIEHVTESSAVTIQKMWRGYHTRKKTNKDIAERLQRRRTQEYIEQLGKDMLLTKAQLENERKIQQLQMQAINALWKKVSTMEVDPKGIPAAAEQGEDSNGGGSGHLSLDQNSAAVVNDLAKRCTMLTDQVQMLQSSIGTIVNCLTMVCNLPQDAIKKQAEIIDCSSTQTDLIAVHTPQIEDLTNFPFTKTRPSTLALESKHEAALACPKIDELNDVDLKETQEDSENLDKDP
B3: Sec22 (protein, UniProt M9PGI6 1-213)
chain: MALLTMIARVIDGLPLVGTMQDDEQVPSGRSILDYQNQAKMLFRKLGTHSPARCSIETGPYLFHYLIENDVCYLVMVDKMYSKRLAFNYLEDLAQEFHANYGRRVNSVTRPYAFIEFDVYIQKAKKQLTDRRRNISNINTQLQDVQRIMVQNIDDVLQRGTVLAELDTKTQNLSMMSQKYKKDAKLLNRKSMYVKAMALGMILLVFIMYFWVL
B4: Kinesin-like protein at 59D (Klp59D) (protein, UniProt Q9W1U1 1-729)
chain: MDRIKIGEQLLFQRSDGRVHQVVCTAKNLERDSITGEWTEGTVVKGKEVPLSTLIGINHHIFAENQPPISKPPSSLLPKPRGSSPTGGPKTHTGNPYAERMRVQDGRSKIATRKTDPAAVGAGNHELGRAHTPRVPAGRPDRDASPTQGRKSQGGNNSNQRFSSVVREVNRMKEQREKRRARQAEQLQEKDALRRNNPGNPNWEVSVMLRQYRSTLIFSPLRCLDPNGGTVQQITVCVRKRPMSRKEENSKNLDIITVPSADSLIVHELRLKVDLTKFLEHHKFRFDYTFDEECSNALVYDHTARPLIRTMFEGGNATCFAYGQTGSGKTHTMGGEFFGKVQDCGTGIYAMAARDVFEEVSRPEYRQMGAKITCSFFEIYGTKVFDLLLPNKPMLRVLEDARQQVVVVGLTEMPVTKVEDVLRLIEHGSKERTSGQTSANAKSSRSHAVFQIALHFPDSWGPHGKCSFVDLAGNERGADTQSADRQTRIEGAEINKSLLALKECIRALSRQSSHLPFRGSKLTQVLRDSFVGGKKNKTCMIAMISPSMSCVENTLNTLRYADRVKELIAKEDEHLQSVEGDGEKSPDLNEESEPEMMADEEGDEEPEDEDNQHLTISSEEASSYNNMSYDMSFNHTLNILGPSRNVDIQEVAEQHALLVENLETYAHNFRQLKTDKEIEQYTQNSESALMKLLAMVNRTRDVTHNYNTQKLLKEENQNAYKKGELDESE
B5: CG9313 (protein, UniProt Q8MSJ9 1-739)
chain: MATKPGKGDGKQVKGKRTSKNKTDGPGGGGGDADDFDAWMKSRQLLKPDDQLDLTEAELGEEITKVLTPTNTNIVRNLVVYSFKEGEFVPAPLPGNTVTLIAFAGNSLHVDSDEGRRQIEESDEIGYPLPMPNYTVVEQRETDNVDGEEGEGEEDDDGATAKDAAVEDEDVEEEDDEEAKGTEGDEGEGEGEGEGAAARQEDDEPAHQAAAVSSKKRKLINQFNYCERGALTYTNPKRNVDTQTIPPPRSQFGANVLQWVIYDSYMENFAESQKDGTKKEERKRGKREKKFRDKSAIAEQLNKKYLKCWQILERMINQNIYDDIAHDYRYWEDPADEFREGEGNLLPLWKFQYDKTKKMNVTDILFNPSYYDLFAVCFGSHDFMKQTNEGYLCLFTVKNPSFPDYIIQTDCGVMCCDIHPTYPFLAVIGLYDGNVAVYNLREDCKEPLYVSRGVNCKHGECVWQIKWGLDMADGEVNFFSVSSDGRVFNWILMQNKLWVTTIITLYRENGLVDGPDGTKVTLKSGGSCMVFHPVDNKIFLVGTECGYIYKCSTAFSSKYLMTYYAHNMSVYRIDFNRFNSNIFVSCGADWMVKVWEDMRPDPLFIFDLGAAVGDVKWAPYSSTVFAAVTTEGKVHVFDLNVNKYKAICIQAVVPKRKNKLTRLSFNEKLAFIVVGDEKGVTTSLKLSPNLRMMVKPPKKQLYLDQNTLQIGKLEKLLSLVRELPEGSTAVPDAATTVRS
B6: Sec24CD (protein, UniProt Q9VQ94 1-1193)
chain: MNPNMYGPPPTQFQQQPQFGAPPPNSGGWPPQQQQLPQQQPPQQQLPPQQQQQQPQYGAPPPTSAASQPYLNGNYQQQLATSMGGLSVGGGVGGANPLKPPLPQGAPAAAAPPPTGFNQFNSNAAPPPTNNNNAAFGAPPPTQAGSYVNGALPPSSTPQSVASGINQMSLNSATLAGLPHMPPPKAATPGAAPGQPPIPAAGSTSQPPLPGQPPLPGQPPFSGQIPTSQPAPSPYGVPSSRPGQPQLPPGATPPTYTQPGLPPQQQQGIPPLQQPGIPQQQPGFPPQQPGLPPLSQPGLPPQPGAPYGAPQQGGYSGGFPGQAPGGFPGAPPPLPGQQAAAPPQFGAPQPGYPGQQPGYPPQPGQQPMPGYPPQPGQQLGGPGYPPQPGAGFPGQPGRPGFNQPPMPGAGNMYQQAPQARRLDPDQMPNPIQVMIENQRLSGGPFVTNQPGLLPPLVTTKFVVHDQGNSSPRFLRSSLYCIPNTGDLLKTTALPLTLNISPLAKVGEGEMEPPIVNFGEMGPIRCNRCKAYMSPNMQFVDAGRRFQCLMCKVTSEVHQNYYQHLDHTGQRVDKHERPELLLGTYEFLATKDYCRNNTPPEVPAFIFIIDVSYNTVKSGLVHLLCSQIKNILKHLPVDQGQDKSKVRVGFITYNSTVHFYNIKSSLAQPQMMVVGDVQEMFMPLLDGFLCHPEESAAVIDALMEEIPRMFADTKETETILYPAIQAGLEALKASNAAGKLLVFNSTLPIAEAPGKLKNRDDRKLLGTDKEKTVLTPQTTAYNTLGQECVQQGCSVDLFVFNNAYIDLATIGQVSRLTGGEVFKYTYFQADVDGKRLIQDIIKNVSRPIAFDAVMRVRTSAGIRPTEFYGHFFMSNTTDVELASIDATKSISIEIKHDDKLAPEENVYLQVALLYTSCSGQRRLRILNLALRVTTTIADVFKCCDLDAMMLFFAKQACFKLMEHSPKQVKDNLIHRSAQILACYRKHCTSPTSAGQLILPECLKLLPLYASCLLKNDAISGGSDMTLDDRSYVIQFILSMDLNQSVSYLYPRFIPIHNVVPEETDLPTPVRCTHEKTQEDGAYILENGVHLFVWLGQALSPDFVQSVFGVQGLQQIALERFNIVPETPLAKRIHGILEQIMKERSRYMRITWLRQNDKLESVFRHFLVEDRGTDGSASYVDFLCHMHKEIKDLLS

Chains of the proteins cited; added tags and fusions are not shown.
UniProt Q9VQ93: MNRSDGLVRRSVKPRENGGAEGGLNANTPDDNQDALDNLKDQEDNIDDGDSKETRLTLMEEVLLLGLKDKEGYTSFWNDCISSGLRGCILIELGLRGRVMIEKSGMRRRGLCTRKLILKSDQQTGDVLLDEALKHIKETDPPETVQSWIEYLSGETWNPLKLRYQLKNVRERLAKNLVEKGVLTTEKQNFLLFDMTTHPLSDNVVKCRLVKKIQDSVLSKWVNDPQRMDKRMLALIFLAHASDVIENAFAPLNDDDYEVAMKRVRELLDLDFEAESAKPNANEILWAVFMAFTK

No constants are given. Whether binding was seen depends on the method and setting. In cells and extracts the contact can be indirect. Here binding means that the protein was enriched with, or labelled near, the bait; the list need not be complete.

The experiment addresses dGOLPH3-mRFP (Drosophila) (UniProt Q9VQ93). The experiment is described as follows: affinity purification with mass spectrometry; RFP-trap beads on lysate of 3000 adult testes expressing dGOLPH3-RFP (RFP alone as control); lysis buffer 25 mM Tris-HCl pH 7.4, 150 mM NaCl, 1 mM EDTA, 1% NP-40; washes at 4 °C; nanoLC-MS/MS.
B1: the binding result was “binds”.

Consider B2, for which the binding entry is listed as “binds”.

For the molecule B3, the binding result is reported as “binds”.

As to B4, the binding result is “binds”.

For B5, the binding entry is reported as “binds”.

As to B6, the binding entry was “binds”.

These data come from paper PMC8468827.
